Data: article PMC11414392
Results are given in words; binding and its absence hold for the method and conditions named. Binding seen in cells or lysates may run through a third protein. Some entries that bind do so weakly or less than the wild type.

Chains of the proteins cited; added tags and fusions are not shown.
UniProt Q01196: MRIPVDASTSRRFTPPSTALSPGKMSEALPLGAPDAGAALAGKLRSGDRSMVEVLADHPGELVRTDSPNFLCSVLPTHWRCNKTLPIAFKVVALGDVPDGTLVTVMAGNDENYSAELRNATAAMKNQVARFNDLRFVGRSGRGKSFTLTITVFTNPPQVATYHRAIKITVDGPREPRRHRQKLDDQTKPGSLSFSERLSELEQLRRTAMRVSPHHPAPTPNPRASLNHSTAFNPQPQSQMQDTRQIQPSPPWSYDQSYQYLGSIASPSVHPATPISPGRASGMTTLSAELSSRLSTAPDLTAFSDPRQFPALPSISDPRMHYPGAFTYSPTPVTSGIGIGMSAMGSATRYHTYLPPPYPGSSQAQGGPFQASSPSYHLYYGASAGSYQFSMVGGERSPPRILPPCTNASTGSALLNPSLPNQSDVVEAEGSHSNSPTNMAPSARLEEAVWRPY

Biological target: Runt-related transcription factor 1 (RUNX1) (human (endogenous in F3-Caco-2)) (UniProt Q01196)
Assay: co-IP; F3 cells lysed in NP-40 buffer with PMSF; lysate pre-cleared with IgG and Protein A/G magnetic beads; 2-4 ug anti-RUNX1 or anti-MUC13 (IgG as control) overnight at 4°C; beads washed five times with lysis buffer; Western blot

binding: binds
B1: Mucin 13 (MUC13) (protein, UniProt Q9H3R2 19-512)
chain: TNQGNSADAVTTTETATSGPTVAAADTTETNFPETASTTANTPSFPTATSPAPPIISTHSSSTIPTPAPPIISTHSSSTIPIPTAADSESTTNVNSLATSDIITASSPNDGLITMVPSETQSNNEMSPTTEDNQSSGPPTGTALLETSTLNSTGPSNPCQDDPCADNSLCVKLHNTSFCLCLEGYYYNSSTCKKGKVFPGKISVTVSETFDPEEKHSMAYQDLHSEITSLFKDVFGTSVYGQTVILTVSTSLSPRSEMRADDKFVNVTIVTILAETTSDNEKTVTEKINKAIRSSSSNFLNYDLTLRCDYYGCNQTADDCLNGLACDCKSDLQRPNPQSPFCVASSLKCPDACNAQHKQCLIKKSGGAPECACVPGYQEDANGNCQKCAFGYSGLDCKDKFQLILTIVGTIAGIVILSMIIALIVTARSNNKTKHIEEENLIDEDFQNLKLRSTGFTNLGAEGSVFPKVRITASRDSQMQNPYSRHSSMPRPDY
